# Data as given in PubChem BioAssay AID602196 (INSERM, 2012)
# Purpose: 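Knock-downs that protect lung cancer cells from cisplatin or sensitise them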
# Cells: human A549 lung cancer cells
# Reagent: siRNA pair against human genes
# Time to read-out: 48 h transfection before cisplatin; time from cisplatin to read-out not stated
# Challenge: cisplatin at a dose killing half of control-siRNA cells; exact dose and duration not given
# Measured: 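Shift in cisplatin death relative to control siRNA, from -50 (all cells die) to +50 (no cells die); siRNAs harmful on their own scored 0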
# Reading the numbers: two-siRNA summed score (-2 to +2): higher = both siRNAs protect from cisplatin killing; -2 means both sensitise; mean protection from cisplatin (shift in death) and protection from cisplatin (shift in death), siRNA C and protection from cisplatin (shift in death), siRNA D: higher = protection from cisplatin killing
# Rule for the call: 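Each siRNA scores 0 if harmful alone by LDH or WST-1, otherwise +1 if it reduces and -1 if it increases cisplatin killing; a gene is active when both siRNAs agree (sum +2 or -2)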
# Meaning of the calls: active = both siRNAs shift cisplatin killing the same way; inactive = no consistent shift, or siRNA harmful alone
# Here is an unselected part of about 23,000 reagents tested. 455 of all reagents (2%) were called active. 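Active includes both protection and sensitisation; some change values fall well beyond the stated -50 to +50 range.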 The record does not give: the amount of reagent.
The opening 2 entries as a preview:
gene,PubChem SID,two-siRNA summed score (-2 to +2),mean protection from cisplatin (shift in death) (%),"protection from cisplatin (shift in death), siRNA C (%)","protection from cisplatin (shift in death), siRNA D (%)",Outcome
CRYBG1,SID131522282,1,17.4,9.6,25.2,inactive
LOC440892,SID131513040,0,6.1,8.9,3.3,inactive

The listing, from the first entry:
gene,PubChem SID,two-siRNA summed score (-2 to +2),mean protection from cisplatin (shift in death) (%),"protection from cisplatin (shift in death), siRNA C (%)","protection from cisplatin (shift in death), siRNA D (%)",Outcome
CRYBG1,SID131522282,1,17.4,9.6,25.2,inactive
LOC440892,SID131513040,0,6.1,8.9,3.3,inactive
LINC01553,SID131517448,0,13.5,16.8,10.1,inactive
SSH2,SID131501110,-1,-12.2,-14.4,-10.1,inactive
LOC402523,SID131521682,1,14.4,24.4,4.5,inactive
ASB16,SID131508833,0,1.5,-0.5,3.6,inactive
LOC441769,SID131519993,1,8.3,11,5.6,inactive
ZNF519,SID131508829,0,1.5,0.9,2.1,inactive
ZNF230,SID131519443,1,5.6,-4.5,15.8,inactive
SULF2,SID131515760,0,9.7,5.3,14,inactive
HELZ2,SID131512246,0,5.3,4.7,5.8,inactive
DYNLT2,SID131500711,-1,-17.3,-32.8,-1.7,inactive
SLC5A1,SID131510431,0,3.2,3.7,2.8,inactive
PCNX4,SID131509514,0,2.2,1.8,2.7,inactive
MTR,SID131511874,0,4.9,6.5,3.2,inactive
PCBP4,SID131519142,1,2.9,-9.4,15.1,inactive
KLF6,SID131518607,0,22.5,29.5,15.5,inactive
MGC4368,SID131506656,0,-1.2,-6,3.7,inactive
LPIN2,SID131517767,0,14.7,20,9.4,inactive
CNNM1,SID131502224,-1,-4.2,8.3,-16.7,inactive
MB21D2,SID131503677,0,-8.5,-18.5,1.5,inactive
UACA,SID131515788,0,9.7,12.9,6.5,inactive
MCM8,SID131514151,0,7.4,1.2,13.7,inactive
